Measurements reported in PubChem BioAssay AID493246 (Drosophila RNAi Screening Center, 2011).

Assay: 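Genes fly cells need to grow and stay alive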 (primary screen)
Cell system: Drosophila Kc and S2R+ cells
Reagent: long dsRNA against Drosophila genes
Measured: 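Raw, unnormalised count of remaining cells in each well; per-plate z-scores of cell number underlie the calls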
Reading the numbers: Kc cell number and S2R+ cell number: higher = more cells remaining
Hit rule: 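Counted as a hit if cell number falls by a z-score of at least 3 within its plate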
The deposit covers about 21,000 reagents; shown is an unselected part of those with a known target gene and a result. Of all reagents, 429 (2%) are marked active. 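Values are raw and not normalised between plates; calls rest on per-plate z-scores that were not deposited.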 Entries without a mark were called inactive. Reagent sequences are not shown. Not stated in the record: the amount of reagent, the time to read-out.

With Ostgamma (Oligosaccharide transferase gamma subunit) [DRSC03074], how do the results read?
Kc cell number, rep 1: 1.32e6; Kc cell number, rep 2: 1.37e6; S2R+ cell number, rep 1: 5.58e5; S2R+ cell number, rep 2: 6.76e5

For B-H2 (BarH2) [DRSC19335], how do the results read?
Kc cell number, rep 1: 6.97e5 (active); Kc cell number, rep 2: 8.20e5; S2R+ cell number, rep 1: 5.40e5; S2R+ cell number, rep 2: 6.05e5

With Polr3F (RNA polymerase III subunit F) [DRSC15785], how do the results read?
Kc cell number, rep 1: 1.37e6; Kc cell number, rep 2: 1.42e6; S2R+ cell number, rep 1: 1.08e6; S2R+ cell number, rep 2: 1.18e6

What did the screen give for Dbp21E2 (DEAD box protein 21E2) [DRSC00616]?
Kc cell number, rep 1: 1.29e6; Kc cell number, rep 2: 1.33e6; S2R+ cell number, rep 1: 7.97e5; S2R+ cell number, rep 2: 9.45e5

What is on record for Sap-r (Saposin-related) [DRSC16849]?
Kc cell number, rep 1: 1.55e6; Kc cell number, rep 2: 1.54e6; S2R+ cell number, rep 1: 1.05e6; S2R+ cell number, rep 2: 1.23e6

What is on record for senju [DRSC02366]?
Kc cell number, rep 1: 1.67e6; Kc cell number, rep 2: 1.54e6; S2R+ cell number, rep 1: 1.12e6; S2R+ cell number, rep 2: 1.36e6

What is on record for ci (cubitus interruptus) [DRSC17172]?
Kc cell number, rep 1: 1.53e6; Kc cell number, rep 2: 1.54e6; S2R+ cell number, rep 1: 1.03e6; S2R+ cell number, rep 2: 1.15e6

With Frq1 (Frequenin 1) [DRSC19961], what does the deposit list?
Kc cell number, rep 1: 1.51e6; Kc cell number, rep 2: 1.51e6; S2R+ cell number, rep 1: 1.09e6; S2R+ cell number, rep 2: 1.14e6

Which result is listed for mthl6 (methuselah-like 6) [DRSC10234]?
Kc cell number, rep 1: 1.26e6; Kc cell number, rep 2: 1.20e6; S2R+ cell number, rep 1: 1.08e6; S2R+ cell number, rep 2: 1.16e6

For IntS9 (Integrator 9) [DRSC10493], what was measured?
Kc cell number, rep 1: 1.53e6; Kc cell number, rep 2: 1.58e6; S2R+ cell number, rep 1: 1.24e6; S2R+ cell number, rep 2: 1.27e6

How did the screen score CG15047 [DRSC19623]?
Kc cell number, rep 1: 1.40e6; Kc cell number, rep 2: 1.31e6; S2R+ cell number, rep 1: 1.03e6; S2R+ cell number, rep 2: 1.16e6

Which result is listed for CG14125 [DRSC10129]?
Kc cell number, rep 1: 1.31e6; Kc cell number, rep 2: 1.40e6; S2R+ cell number, rep 1: 1.34e6; S2R+ cell number, rep 2: 1.50e6

With DNaseII (Deoxyribonuclease II) [DRSC16310], what was measured?
Kc cell number, rep 1: 1.50e6; Kc cell number, rep 2: 1.53e6; S2R+ cell number, rep 1: 1.22e6; S2R+ cell number, rep 2: 1.27e6

Limited to “S2R+ cell number, rep 1”, for 3 of the entries above:
Frq1 (Frequenin 1) [DRSC19961] = 1.09e6
mthl6 (methuselah-like 6) [DRSC10234] = 1.08e6
IntS9 (Integrator 9) [DRSC10493] = 1.24e6

The list goes on:
What did the screen give for Sugb (Sugar baby) [DRSC10815]?
Kc cell number, rep 1: 1.31e6; Kc cell number, rep 2: 1.38e6; S2R+ cell number, rep 1: 1.18e6; S2R+ cell number, rep 2: 1.12e6

With CG6282 [DRSC10616], how do the results read?
Kc cell number, rep 1: 1.44e6; Kc cell number, rep 2: 1.54e6; S2R+ cell number, rep 1: 1.25e6; S2R+ cell number, rep 2: 1.12e6

What did the screen give for CG32450 [DRSC11546]?
Kc cell number, rep 1: 1.43e6; Kc cell number, rep 2: 1.51e6; S2R+ cell number, rep 1: 1.11e6; S2R+ cell number, rep 2: 1.27e6

For SmydA-7 (SET and MYND domain containing, arthropod-specific, member 7) [DRSC07340], what does the deposit list?
Kc cell number, rep 1: 1.37e6; Kc cell number, rep 2: 1.40e6; S2R+ cell number, rep 1: 1.24e6; S2R+ cell number, rep 2: 1.25e6

What is on record for Sclp [DRSC19851]?
Kc cell number, rep 1: 6.00e5; S2R+ cell number, rep 1: 9.14e5

What did the screen give for MED25 (Mediator complex subunit 25) [DRSC14483]?
Kc cell number, rep 1: 7.17e5 (active); Kc cell number, rep 2: 1.08e6; S2R+ cell number, rep 1: 3.58e5; S2R+ cell number, rep 2: 4.72e5

Which result is listed for CtsK2 (Cathepsin K2) [DRSC06897]?
Kc cell number, rep 1: 1.33e6; Kc cell number, rep 2: 1.38e6; S2R+ cell number, rep 1: 1.17e6; S2R+ cell number, rep 2: 1.13e6

For ICA69 (Islet cell autoantigen 69 kDa) [DRSC11621], how do the results read?
Kc cell number, rep 1: 1.57e6; Kc cell number, rep 2: 1.60e6; S2R+ cell number, rep 1: 1.45e6; S2R+ cell number, rep 2: 1.47e6

How did the screen score e(y)2b (enhancer of yellow 2b) [DRSC12556]?
Kc cell number, rep 1: 1.32e6; Kc cell number, rep 2: 1.34e6; S2R+ cell number, rep 1: 1.31e6; S2R+ cell number, rep 2: 1.38e6

For CG14985 [DRSC08078], how do the results read?
Kc cell number, rep 1: 1.57e6; Kc cell number, rep 2: 1.50e6; S2R+ cell number, rep 1: 1.06e6; S2R+ cell number, rep 2: 1.25e6

With CG14985 [DRSC08443], what was measured?
Kc cell number, rep 1: 1.39e6; Kc cell number, rep 2: 1.25e6; S2R+ cell number, rep 1: 1.07e6; S2R+ cell number, rep 2: 1.28e6

With CG12780 [DRSC06169], how do the results read?
Kc cell number, rep 1: 1.53e6; Kc cell number, rep 2: 1.70e6; S2R+ cell number, rep 1: 1.28e6; S2R+ cell number, rep 2: 1.41e6

How did the screen score ric8a [DRSC18093]?
Kc cell number, rep 1: 5.42e5; S2R+ cell number, rep 1: 8.01e5

With Fbl6 (F-box and leucine-rich repeat protein 6) [DRSC06335], what does the deposit list?
Kc cell number, rep 1: 1.35e6; Kc cell number, rep 2: 1.40e6; S2R+ cell number, rep 1: 1.08e6; S2R+ cell number, rep 2: 1.10e6
